In PubChem BioAssay AID504467 (National Center for Advancing Translational Sciences (NCATS), 2011):
Hit rate of the full screen: of about 330,000 compounds, about 7,700 (2.3%) were called active. The shares of active, inactive and inconclusive entries below differ from those in the screen. Calls come from the whole dose curve; as a rule, active = well fitted inhibition curve with a large enough effect; inconclusive = small, poorly fitted or top-dose-only effect, or effect the other way; inactive = flat fitted curve, though single readings scatter. A potency beside an inconclusive call is a rough fit, not a confirmed value.

assay: qHTS screen for small molecules that inhibit ELG1-dependent DNA repair in human embryonic kidney (HEK293T) cells expressing luciferase-tagged ELG1; settings: HEK293T ELG1-luciferase reporter, luminescence, 16 h, DNA damage induced by 5-fluorouridine; series mostly up to 46.1 µM; note: nearly all actives have a fitted effect of over 55% in size
Summary of the method: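 Quantitative HTS, concentration-response format. 2,000 cells/well co-treated with 5-fluorouridine and compound, 16 hr in 5% CO2 at 37 °C; ONE-Glo luminescence read after 30 min.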
Potency is the fitted concentration of half-maximal effect.

Compound | Potency
COc1ccccc1-c1ccc(/C=C2/C=C(C)OC2=O)o1 | inactive
COc1ccc(/C=C/C(=O)OC(C)C(=O)c2ccccc2)cc1OC (stereo unspecified) | inactive
COc1cc2cnc(-c3ccccc3)cc2cc1OC | inconclusive: 14.6 µM [activator, partial curve]
C=CCSc1nnc2c(n1)OC(c1cccnc1)Nc1ccccc1-2 (stereo unspecified) | inconclusive: 15.8 µM [activator, partial curve, poor fit]
COc1ccc(Cn2nnnc2CN(Cc2cc3cc(C)ccc3[nH]c2=O)C2CCCC2)cc1 | inconclusive: 6.51 µM [inhibitor, partial curve, poor fit]
COCCCNC(=O)c1c(NC(=O)c2cccs2)sc2c1CCCC2 | inconclusive: 6.51 µM [activator, single point]
O=C1CC(c2ccc3c(c2)OCO3)c2cc3c(cc2N1)OCCO3 (stereo unspecified) | inconclusive: 29.1 µM [inhibitor, single point]
Cc1ccccc1OCCc1c(C)[nH]c(=S)[nH]c1=O | inconclusive: 1.16 µM [inhibitor, single point]
COc1cc(/C=N/N=C2/C(=O)Nc3ccccc32)ccc1O | inconclusive: 13 µM [activator, partial curve]
COC(=O)c1oc(-c2ccccc2)nc1C | inactive
Cc1ccc(C(=O)c2c[nH]cc2-c2ccccc2)cc1 | inconclusive: 18.4 µM [activator, partial curve, poor fit]
Cn1c(SCC(=O)NNC(=O)c2ccccc2Br)nnc1C(F)(F)F | inactive
COc1ccc(C2N(c3ccc4c(c3)OCCO4)C(=O)C2(F)F)cc1OC (stereo unspecified) | inactive
Cc1cccc(N2CCN(S(=O)(=O)c3c(C)nc4scc(C)n4c3=O)CC2)c1C | active: 25.9 µM
COc1ccccc1-c1nnc(SCC(=O)N2CCCCC2)o1 | inconclusive: 29.1 µM [activator, single point]
O=C(c1ccc2c3c(cccc13)CC2)C1CCCN(Cc2ccncc2)C1 (stereo unspecified) | inconclusive: 23.1 µM [inhibitor, partial curve, poor fit]
O=C1CN(c2ccccc2)C(=S)N1C(=O)c1ccc(Br)cc1 | inconclusive: 2.91 µM [activator, full curve]
CC(C)(C)N1CC(C(=O)Nc2ccc(C#N)cc2)CC1=O (stereo unspecified) | inactive
COc1ccc(Br)cc1CNC(=O)C1CCN(S(=O)(=O)N2CCC(C)CC2)CC1 | inconclusive: 20.6 µM [inhibitor, partial curve]
Cc1ccc(-n2nnc(-c3cc4ccccc4nc3Cl)n2)cc1 | inconclusive: 20.6 µM [activator, partial curve]
Cc1ccc(Oc2nnc(-c3ccccc3)c3ccccc23)cc1 | inactive
c1ccc(Cn2ncc3c(N4CCN(C(c5ccccc5)c5ccccc5)CC4)ncnc32)cc1 | inactive
c1ccc2[nH]c(SCC3CCCCO3)nc2c1 (stereo unspecified) | inconclusive: 4.11 µM [activator, full curve]
COc1ccc(Oc2coc3cc(OC(=O)c4cncc(Br)c4)ccc3c2=O)cc1 | inconclusive: 18.4 µM [activator, single point]

In the list so far, these contain two or more sulfur atoms:
Compound | Potency
COCCCNC(=O)c1c(NC(=O)c2cccs2)sc2c1CCCC2 | inconclusive: 6.51 µM [activator, single point]
Cc1cccc(N2CCN(S(=O)(=O)c3c(C)nc4scc(C)n4c3=O)CC2)c1C | active: 25.9 µM

(more compounds)

Compound | Potency
Cc1sc(NC(=O)c2ccco2)c(CN2CCC(C)CC2)c1C | inactive
O=C(c1ccccc1)c1ccc(OCCO)cc1 | inconclusive: 16.4 µM [activator, partial curve]
Cc1cccc(N2CCN(CCCNC(=O)c3ccc(NC(=O)C4=CSCCO4)cc3)CC2C)c1 (stereo unspecified) | inconclusive: 29.1 µM [inhibitor, single point]
Cc1c(C(=O)NCc2ccccn2)oc2ccccc12 | inconclusive: 13 µM [activator, partial curve]
Cc1cccc(NC(=O)Cn2c(O)c(N=NC(=O)c3ccccc3O)c3ccccc32)c1 | inconclusive: 9.2 µM [activator, partial curve]
Cc1cccc(C2c3[nH]c4ccccc4c3CCN2C(=O)Cc2nc(-c3ccccc3)n[nH]2)n1 (stereo unspecified) | active: 18.3 µM
COc1ccc(CCNC(=O)CN2C(=O)COc3ccc(S(=O)(=O)N4CCCC4)cc32)c(OC)c1 | inactive
CCOc1ccc(CCNC(=O)Cn2ncn3nc(-c4ccc(OC)cc4)cc3c2=O)cc1 | inconclusive: 1.83 µM [activator, full curve]
COc1ccc(C)cc1NC(=O)CN1CCCC1c1ccc2c(c1)OCCCO2 (stereo unspecified) | active: 4.11 µM
Cc1cccc(N2CCN(C(=O)CN3C(=O)NC(C)(C)C3=O)CC2)c1C | inconclusive: 8.2 µM [activator, partial curve]
CSc1cccc(NS(=O)(=O)c2ccc3c(c2)CCN3C(C)=O)c1 | inconclusive: 2.31 µM [inhibitor, partial curve, poor fit]
O=C(CN1CCN(CCC(=O)Nc2ccccc2F)CC1)Nc1ccc(Cl)cc1 | inconclusive: 1.3 µM [inhibitor, partial curve, poor fit]
O=C(NCC(=O)N1CCOCC1)c1ccc(Cl)c(Cl)c1 | inconclusive: 18.3 µM [activator, partial curve]
Nc1c(C(=O)c2ccc(Cl)cc2)oc2ccccc12 | inconclusive: 20.6 µM [activator, partial curve]
CS(=O)(=O)N(CCc1ccccc1)CC(=O)N1CCN(c2ccccc2F)CC1 | inconclusive: 18.4 µM [inhibitor, partial curve]
COCCCNC(=O)CC1C[C@H](C(=O)N2CCOCC2)[C@@]2(C)c3[nH]c4ccc(OC)cc4c3CCN2C1=O (stereo partly specified) | inactive
COc1cccc(CN2CCN(C(=O)c3ccc(-c4ccccc4)cc3)CC2)c1OC | active: 18.3 µM
CCN(C(=O)COC(=O)c1ccc(COc2ccc3c(C)cc(=O)oc3c2)cc1)C1CCS(=O)(=O)C1 (stereo unspecified) | inconclusive: 23.1 µM [activator, partial curve, poor fit]
C=CCn1c2ccccc2c(=O)c2cc(C#CC[C@@H](C)O)ccc21 | inconclusive: 1.83 µM [activator, full curve]
O=C(c1cnn2cccnc12)N1CCN(c2ccccc2)CC1 | inconclusive: 18.4 µM [activator, single point]
CCOc1ccc(-n2c(Cc3ccccc3)nnc2SCc2c(C)noc2C)cc1 | inactive
COc1ccc(-n2ncc3c(=O)n(CC(=O)N4CCCc5ccccc54)cnc32)cc1 | inconclusive: 16.4 µM [inhibitor, single point]
Oc1ccc(/C=N/Nc2ccnc3cc(Cl)ccc23)c(O)c1O | inactive
CCCCC(C(=O)NC(C)c1ccccc1)C(=O)NC(C)c1ccccc1 (stereo unspecified) | inactive

Two entries from above in a different format.
CS(=O)(=O)N(CCc1ccccc1)CC(=O)N1CCN(c2ccccc2F)CC1
  Potency: inconclusive: 18.4 µM [inhibitor, partial curve]
C=CCn1c2ccccc2c(=O)c2cc(C#CC[C@@H](C)O)ccc21
  Potency: inconclusive: 1.83 µM [activator, full curve]

Next part

Compound | Potency
CCCOP(=O)(c1ccc(N(C)C)cc1)C(O)c1c(Cl)cccc1Cl (stereo unspecified) | inactive
CCC1=[N+](CC(=O)c2ccc(C)cc2)CCn2cccc21 | inconclusive: 5.8 µM [activator, full curve]
COC(=O)COc1ccc2c(-c3ccc(OC)cc3)cc(=O)oc2c1 | inactive
CN(C(=O)c1ccc(NC(=O)C2CCCN(C(=O)OC(C)(C)C)C2)cc1)C1CCCC1 (stereo unspecified) | inconclusive: 25.9 µM [inhibitor, partial curve, poor fit]
O=C(CN1CCSC1=NCc1ccccc1)c1ccc(Cl)cc1 | inactive
Cc1cc(C)c2ccc(NN)nc2c1O | inactive
Cc1ccc(CN2C(=O)c3ccccc3Sc3ccc(C(=O)NCCN4CCOCC4)cc32)cc1 | inconclusive: 29.1 µM [inhibitor, single point]
FC(F)(F)c1ccc(CSc2ccccn2)cc1 | inactive
CC(Sc1n[nH]c(=O)n1Cc1ccccc1)C(=O)NCC1CCCO1 (stereo unspecified) | inactive
Cc1ccc(-c2noc(COC(=O)c3ccco3)n2)cc1 | inconclusive: 18.3 µM [activator, partial curve]
COCCNC(=O)c1cccc(OC2CCN(Cc3ccc(C(C)C)cc3)CC2)c1 | inconclusive: 8.91 µM [inhibitor, partial curve, poor fit]
COc1ccc(OCC(=O)NC2CCCc3ccccc32)cc1 (stereo unspecified) | inconclusive: 20.6 µM [inhibitor, single point]
CCN1CCN(Cc2ccc(NC(=O)Nc3cccs3)cc2)CC1 | inconclusive: 5.17 µM [activator, partial curve]
CCN1CCCC1CNC(=O)c1cc2c(OC)c(OC)c(OC)cc2[nH]1 (stereo unspecified) | inconclusive: 8.2 µM [activator, partial curve]
CN(C)C(=O)CCc1ccc2c3c([nH]c2c1)[C@]1(C)[C@@H](C(=O)N2CCCCC2)C[C@H](CC(=O)NCC24CC5CC(CC(C5)C2)C4)C(=O)N1CC3 | inconclusive: 14.6 µM [inhibitor, partial curve, poor fit]
Oc1ccc(Cl)cc1-c1cc(-c2ccco2)[nH]n1 | inconclusive: 29.1 µM [activator, single point]
CCN1Cc2c(/C=C/c3ccccc3)nc3ccc(OC)cc3c2N(c2cccc(Cl)c2)C1 | inconclusive: 29.1 µM [inhibitor, single point]
O=C(O)CC1(c2ccc(F)cc2)C2CC3CC(C2)CC1C3 (stereo unspecified) | inactive
Cc1nnc(SCC(=O)Nc2ccc(N3CCOCC3)cc2)n1Cc1ccccc1 | inconclusive: 18.3 µM [activator, partial curve, poor fit]
Cc1ccccc1OCCC(=O)OCC(=O)Nc1ccc2[nH]c(=O)[nH]c2c1 | inactive
CN1C2CCC1CC(NC(=O)c1cc(S(=O)(=O)N(C)C)c(Cl)cc1Cl)C2 (stereo unspecified) | inconclusive: 29.1 µM [activator, single point]
CCOC(=O)CC1C(=O)NCCN1C(=O)c1ccc(Cl)cc1 (stereo unspecified) | inactive
COc1ccc(N2CCN(Cc3nc(Cc4cccc(F)c4)no3)C(C)C2)cc1 (stereo unspecified) | inconclusive: 25.9 µM [inhibitor, single point]
